Measurements reported in PubChem BioAssay AID1224830 (NIAID, 2016)
Here is an unselected part of about 18,000 reagents tested. About 2,900 of all reagents (16%) were called active. 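Calls are made per well; low scores hint the gene aids the LPS response, high scores that it dampens it.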 Repeated entries: four replicate wells of each siRNA pool. Reagent sequences are not shown.

Assay: 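Host factors that control LPS-induced TNF expression in human macrophages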 (primary screen)
Cells: human THP-1 monocytic leukaemia cells, TNF dual-luciferase reporter clone, PMA-differentiated to macrophage-like cells
Knock-down reagent: siRNA pool against human genes, 50 nM
Timing: LPS for 4 h, given about 3 days after siRNA transfection
Treatment: bacterial LPS (TLR4 ligand), 10 ng/ml
Read-out: 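Ratio of firefly to renilla light, scaled to the plate median and expressed as a robust z-score per replicate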
Reading the numbers: TNF reporter robust z-score: higher = stronger TNF reporter response to LPS
Rule for the call: 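a well is active when its z-score exceeds 2.8 or falls below -1.5; control wells carry no call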

Gene,TNF reporter robust z-score,outcome
KCNH4 (potassium voltage-gated channel subfamily H member 4),1.14,inactive
KCNH4 (potassium voltage-gated channel subfamily H member 4),0.58,inactive
KCNH4 (potassium voltage-gated channel subfamily H member 4),-0.01,inactive
KCNH4 (potassium voltage-gated channel subfamily H member 4),0.86,inactive
"RADX (RPA1 related single stranded DNA binding protein, X-linked)",-0.04,inactive
"RADX (RPA1 related single stranded DNA binding protein, X-linked)",-0.56,inactive
"RADX (RPA1 related single stranded DNA binding protein, X-linked)",1.06,inactive
"RADX (RPA1 related single stranded DNA binding protein, X-linked)",1.33,inactive
PSKH1 (protein serine kinase H1),0.08,inactive
PSKH1 (protein serine kinase H1),0.05,inactive
PSKH1 (protein serine kinase H1),0.95,inactive
PSKH1 (protein serine kinase H1),0.9,inactive
PLXNB3 (plexin B3),-0.39,inactive
PLXNB3 (plexin B3),-0.5,inactive
PLXNB3 (plexin B3),1.01,inactive
PLXNB3 (plexin B3),-0.94,inactive
AHCTF1 (AT-hook containing transcription factor 1),-0.44,inactive
AHCTF1 (AT-hook containing transcription factor 1),1.47,inactive
AHCTF1 (AT-hook containing transcription factor 1),0.53,inactive
AHCTF1 (AT-hook containing transcription factor 1),0.24,inactive
MLF1 (myeloid leukemia factor 1),-1.35,inactive
MLF1 (myeloid leukemia factor 1),-1.09,inactive
MLF1 (myeloid leukemia factor 1),-0.71,inactive
MLF1 (myeloid leukemia factor 1),6.55,active
LINC02908 (long independently transcribed non-coding RNA 2908),-0.86,inactive
LINC02908 (long independently transcribed non-coding RNA 2908),-0.55,inactive
LINC02908 (long independently transcribed non-coding RNA 2908),-0.01,inactive
LINC02908 (long independently transcribed non-coding RNA 2908),0.06,inactive
OGA (O-GlcNAcase),0.61,inactive
OGA (O-GlcNAcase),-0.66,inactive
OGA (O-GlcNAcase),1.28,inactive
OGA (O-GlcNAcase),1.08,inactive
"FOSL1 (FOS like 1, AP-1 transcription factor subunit)",-0.23,inactive
"FOSL1 (FOS like 1, AP-1 transcription factor subunit)",0.88,inactive
"FOSL1 (FOS like 1, AP-1 transcription factor subunit)",2.61,inactive
"FOSL1 (FOS like 1, AP-1 transcription factor subunit)",0.63,inactive
NCOA5 (nuclear receptor coactivator 5),-0.01,inactive
NCOA5 (nuclear receptor coactivator 5),0.76,inactive
NCOA5 (nuclear receptor coactivator 5),-1.17,inactive
NCOA5 (nuclear receptor coactivator 5),-0.1,inactive
DPF3 (double PHD fingers 3),-0.14,inactive
DPF3 (double PHD fingers 3),-0.58,inactive
DPF3 (double PHD fingers 3),-0.96,inactive
DPF3 (double PHD fingers 3),-1.31,inactive
LTN1 (listerin E3 ubiquitin protein ligase 1),0.25,inactive
LTN1 (listerin E3 ubiquitin protein ligase 1),-0.12,inactive
LTN1 (listerin E3 ubiquitin protein ligase 1),1.54,inactive
LTN1 (listerin E3 ubiquitin protein ligase 1),1.37,inactive
MINDY2 (MINDY lysine 48 deubiquitinase 2),0.91,inactive
MINDY2 (MINDY lysine 48 deubiquitinase 2),0.22,inactive
MINDY2 (MINDY lysine 48 deubiquitinase 2),-1.03,inactive
MINDY2 (MINDY lysine 48 deubiquitinase 2),-0.66,inactive
CDHR2 (cadherin related family member 2),0.48,inactive
CDHR2 (cadherin related family member 2),1.34,inactive
CDHR2 (cadherin related family member 2),0.93,inactive
CDHR2 (cadherin related family member 2),0.41,inactive
XCR1 (X-C motif chemokine receptor 1),-0.65,inactive
XCR1 (X-C motif chemokine receptor 1),-0.24,inactive
XCR1 (X-C motif chemokine receptor 1),-0.98,inactive
XCR1 (X-C motif chemokine receptor 1),-0.13,inactive
ERO1A (endoplasmic reticulum oxidoreductase 1 alpha),2.22,inactive
ERO1A (endoplasmic reticulum oxidoreductase 1 alpha),2.53,inactive
ERO1A (endoplasmic reticulum oxidoreductase 1 alpha),3.61,active
ERO1A (endoplasmic reticulum oxidoreductase 1 alpha),2.44,inactive
ELK1 (ETS transcription factor ELK1),0.19,inactive
ELK1 (ETS transcription factor ELK1),0.36,inactive
ELK1 (ETS transcription factor ELK1),0.71,inactive
ELK1 (ETS transcription factor ELK1),0.58,inactive
SLC25A48,0.45,inactive
SLC25A48,0.18,inactive
SLC25A48,-0.97,inactive
SLC25A48,0.23,inactive
PSMB1 (proteasome 20S subunit beta 1),-1.48,inactive
PSMB1 (proteasome 20S subunit beta 1),-1.68,active
PSMB1 (proteasome 20S subunit beta 1),-1.56,active
PSMB1 (proteasome 20S subunit beta 1),-2.09,active
CDK2 (cyclin dependent kinase 2),0.21,inactive
CDK2 (cyclin dependent kinase 2),1.96,inactive
CDK2 (cyclin dependent kinase 2),0.34,inactive
CDK2 (cyclin dependent kinase 2),1.08,inactive
OR52J3 (olfactory receptor family 52 subfamily J member 3),-0.97,inactive
OR52J3 (olfactory receptor family 52 subfamily J member 3),0.31,inactive
OR52J3 (olfactory receptor family 52 subfamily J member 3),-1.08,inactive
OR52J3 (olfactory receptor family 52 subfamily J member 3),-0.55,inactive
TGFB1 (transforming growth factor beta 1),0.27,inactive
TGFB1 (transforming growth factor beta 1),0.7,inactive
TGFB1 (transforming growth factor beta 1),1.65,inactive
TGFB1 (transforming growth factor beta 1),0.64,inactive
"LARS2 (leucyl-tRNA synthetase 2, mitochondrial)",-0.65,inactive
"LARS2 (leucyl-tRNA synthetase 2, mitochondrial)",-0.42,inactive
"LARS2 (leucyl-tRNA synthetase 2, mitochondrial)",2.04,inactive
"LARS2 (leucyl-tRNA synthetase 2, mitochondrial)",-0.18,inactive
KBTBD2 (kelch repeat and BTB domain containing 2),-0.39,inactive
KBTBD2 (kelch repeat and BTB domain containing 2),0.38,inactive
KBTBD2 (kelch repeat and BTB domain containing 2),0.43,inactive
KBTBD2 (kelch repeat and BTB domain containing 2),0.83,inactive
CLDN12 (claudin 12),0.21,inactive
CLDN12 (claudin 12),0.8,inactive
CLDN12 (claudin 12),0.74,inactive
CLDN12 (claudin 12),0.92,inactive
RPS20 (ribosomal protein S20),-0.4,inactive
RPS20 (ribosomal protein S20),-0.03,inactive
RPS20 (ribosomal protein S20),-0.14,inactive
RPS20 (ribosomal protein S20),0.29,inactive
KIF9 (kinesin family member 9),0.43,inactive
KIF9 (kinesin family member 9),0.08,inactive
KIF9 (kinesin family member 9),0.64,inactive
KIF9 (kinesin family member 9),-0.6,inactive
"MBTPS2 (membrane bound transcription factor peptidase, site 2)",-0.11,inactive
"MBTPS2 (membrane bound transcription factor peptidase, site 2)",0.46,inactive
"MBTPS2 (membrane bound transcription factor peptidase, site 2)",-0.07,inactive
"MBTPS2 (membrane bound transcription factor peptidase, site 2)",2,inactive
